From patent US20080161260A1, “Methods for Detecting and Quantifying Cell Proliferation In Vivo” (Wyeth, priority 2006, published 2008) come the findings set out here.

The data set deals with genomic DNA of hippocampus cells. In words: chemiluminescence BrdU ELISA of BrdU incorporation into hippocampal genomic DNA in vivo. Details: species or system rat. The settings on record: for amount of BrdU incorporated into hippocampal DNA (chemiluminescence): four ip. injections at two hour intervals on the same day. As to the method:
Male Sprague-Dawley rats (Charles River Laboratories, Inc., Wilmington, Mass.) weighing 200-225 g upon arrival into the animal facility were used in all studies described in this subsequent examples. The rats were housed in pairs, allowed access to food and water ad libitum, and maintained on a 12-h light-dark cycle, with lights on at 6 a.m. All injections were performed during the light cycle.
Four different BrdU injection protocols were tested. Animals received ip. injections of 5-bromo-2-deoxyuridine (BrdU; Sigma, St. Louis, Mo., cat. no. B-5002) in saline (15 mg/ml) as follows:
24 hours after the last BrdU injection, rats were euthanized with CO2. The brains were extracted and placed in freezing saline. One person sectioned the brain tissue on a brain block (1.5-2 mm coronal sections), and a second person prepared at least three 1.5 mm punches of the subgranular zone of the dentate gyrus of the hippocampus (see FIGS. 9A-9C) taken from each animal. Samples were frozen immediately on dry ice, and were stored at −80° C. until DNA extraction. […]
COSTAR® high binding 96 well plates (Corning Inc., Acton, Mass., cat. no. 3601) were coated with monoclonal anti-BrdU antibody (BD Biosciences, San Jose, Calif., cat. no. 347580) at a dilution of 1:100 (100 μl/well) in coating buffer (55 mM NaHCO3 buffer; ph 9.0) overnight at 4° C. on a shaker. […] The wells were then washed 3 times with 1×PBS on a shaker at room temperature, and the amount of anti-BrdU POD-conjugated Fab antibody fragments bound to BrdU DNA in each well was quantified by determining the chemiluminescence produced upon addition of BM Chemiluminescence ELISA Substrate (POD) (Roche Applied Science, cat. no: 1 582 950) to the wells, following the manufacturer's instructions, and using a standard luminometer. […]
The samples were analyzed by chemiluminescence BrdU ELISA essentially as described in Example 4. […]
A general note: Uptake of a labelled nucleoside into DNA is a usual measure of proliferation.

SMILES strings stand for the structures.

Turning to `O=c1[nH]c(=O)n([C@H]2C[C@H](O)[C@@H](CO)O2)cc1Br` [BrdU, 5-bromo-2′-deoxyuridine], the “amount of BrdU incorporated into hippocampal DNA (chemiluminescence)” value was “does not increase further” (dosages greater than 100 mg/kg BrdU (150, 225 mg/kg)) and “dose-dependent” (dosages of up to 100 mg/kg BrdU, whole hippocampus 24 h after last injection). The “amount of BrdU incorporated into the DNA (chemiluminescence emitted)” value (single daily ip. injections of 100 mg/kg BrdU on one, four or seven consecutive days, hippocampus punches) is “clearly increases as the number of days that BrdU is administered to the animals is increased from one to seven”.
